Laboratory results taken from article PMC6797515, “Effects of Bakuchiol on chondrocyte proliferation via the PI3K‐Akt and ERK1/2 pathways mediated by the estrogen receptor for promotion of the regeneration of knee articular cartilage defects” (Cell Proliferation, 2019).

Tested on: chondrocytes
Assay: RNA-sequencing for differentially expressed genes
Format: cell-based, rat
Settings: 10 µmol/L BAK vs control

C=C[C@@](C)(/C=C/c1ccc(O)cc1)CCC=C(C)C [BAK, bakuchiol]
number of down-regulated differentially expressed genes: 32 genes | number of up-regulated differentially expressed genes: 75 genes
